Data taken from patent US20220073642A1, “METHODS OF USING SURUFATINIB IN TREATING ADVANCED PANCREATIC AND EXTRA-PANCREATIC NEUROENDOCRINE TUMORS” (HUTCHISON MEDIPHARMA LIMITED, priority 2020, published 2022).

Experiment: SANET-ep Phase III study, safety and exposure (NCI CTCAE v4.03)
Type: in vivo, human
Details: N = 129
Procedure: This study is a randomized, double-blind, placebo-controlled, multi-center Phase III study to assess the efficacy and safety of Surufatinib in treating advanced extra-pancreatic neuroendocrine tumors.
Surufatinib, 300 mg, once daily (QD), orally
Continuous administration (every 4 weeks as a treatment cycle).

Structure (SMILES): Cc1cc2cc(Oc3ccnc(Nc4cccc(CS(=O)(=O)NCCN(C)C)c4)n3)ccc2[nH]1 [Surufatinib, N-(2-(dimethylamino)ethyl)-1-(3-((4-((2-methyl-1H-indol-5-yl)oxy)pyrimidin-2-yl)amino)phenyl)-methanesulfonamide]
- treatment discontinuation for disease progression: 47.3%
